Data as given in article PMC3762332.
Construct, isoform or probe ends are uncertain for at least one entry. For some of these results: Tags and fusion partners may be left off the protein sequences shown.

Amino acid sequences for entries named in this document (tags omitted). A change or cut given only in a name is not applied to a line headed by its entry.
UniProt P23771: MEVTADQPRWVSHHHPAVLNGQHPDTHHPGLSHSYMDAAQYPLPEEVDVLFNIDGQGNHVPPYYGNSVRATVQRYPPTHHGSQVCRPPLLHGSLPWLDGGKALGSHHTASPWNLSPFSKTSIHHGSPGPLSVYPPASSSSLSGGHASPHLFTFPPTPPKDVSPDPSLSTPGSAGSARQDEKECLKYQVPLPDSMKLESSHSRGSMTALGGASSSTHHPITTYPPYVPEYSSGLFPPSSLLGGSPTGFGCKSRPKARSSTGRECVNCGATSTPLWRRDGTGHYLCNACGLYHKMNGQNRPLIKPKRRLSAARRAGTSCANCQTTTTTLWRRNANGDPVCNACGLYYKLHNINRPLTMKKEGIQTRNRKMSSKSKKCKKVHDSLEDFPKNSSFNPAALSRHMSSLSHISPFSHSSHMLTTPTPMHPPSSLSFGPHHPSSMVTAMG
UniProt P43694: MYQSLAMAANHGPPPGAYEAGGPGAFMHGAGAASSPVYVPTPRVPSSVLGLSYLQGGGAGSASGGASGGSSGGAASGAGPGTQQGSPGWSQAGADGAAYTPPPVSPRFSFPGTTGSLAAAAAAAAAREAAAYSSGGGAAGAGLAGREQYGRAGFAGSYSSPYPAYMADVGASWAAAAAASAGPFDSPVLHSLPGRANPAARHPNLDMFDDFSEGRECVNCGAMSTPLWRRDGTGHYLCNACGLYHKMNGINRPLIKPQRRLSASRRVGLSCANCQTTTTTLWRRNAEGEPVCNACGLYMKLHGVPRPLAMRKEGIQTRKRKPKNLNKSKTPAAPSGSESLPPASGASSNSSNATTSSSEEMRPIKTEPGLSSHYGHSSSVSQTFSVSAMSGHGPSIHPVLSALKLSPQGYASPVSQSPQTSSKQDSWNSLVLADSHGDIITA
UniProt P20719: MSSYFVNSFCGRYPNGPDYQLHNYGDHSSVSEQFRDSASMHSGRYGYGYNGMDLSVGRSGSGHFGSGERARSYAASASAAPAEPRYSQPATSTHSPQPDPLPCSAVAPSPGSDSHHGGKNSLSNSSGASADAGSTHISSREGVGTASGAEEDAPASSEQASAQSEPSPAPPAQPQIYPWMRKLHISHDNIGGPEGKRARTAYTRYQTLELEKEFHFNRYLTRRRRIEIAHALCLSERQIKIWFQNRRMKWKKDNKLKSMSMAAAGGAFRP
UniProt P37231: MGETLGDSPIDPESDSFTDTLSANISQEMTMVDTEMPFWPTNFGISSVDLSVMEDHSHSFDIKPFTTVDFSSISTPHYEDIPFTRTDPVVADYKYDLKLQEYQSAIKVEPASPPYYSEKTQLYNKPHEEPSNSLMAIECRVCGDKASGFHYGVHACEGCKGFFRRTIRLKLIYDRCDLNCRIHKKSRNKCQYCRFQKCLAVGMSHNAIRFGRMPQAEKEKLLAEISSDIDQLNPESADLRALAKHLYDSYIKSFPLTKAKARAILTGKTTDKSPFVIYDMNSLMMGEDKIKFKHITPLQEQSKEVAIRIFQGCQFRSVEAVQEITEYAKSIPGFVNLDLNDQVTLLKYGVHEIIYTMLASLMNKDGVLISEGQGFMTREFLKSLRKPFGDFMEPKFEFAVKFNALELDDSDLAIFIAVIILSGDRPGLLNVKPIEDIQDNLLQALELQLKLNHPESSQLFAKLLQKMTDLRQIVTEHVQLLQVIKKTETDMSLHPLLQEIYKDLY
UniProt Q8NC26: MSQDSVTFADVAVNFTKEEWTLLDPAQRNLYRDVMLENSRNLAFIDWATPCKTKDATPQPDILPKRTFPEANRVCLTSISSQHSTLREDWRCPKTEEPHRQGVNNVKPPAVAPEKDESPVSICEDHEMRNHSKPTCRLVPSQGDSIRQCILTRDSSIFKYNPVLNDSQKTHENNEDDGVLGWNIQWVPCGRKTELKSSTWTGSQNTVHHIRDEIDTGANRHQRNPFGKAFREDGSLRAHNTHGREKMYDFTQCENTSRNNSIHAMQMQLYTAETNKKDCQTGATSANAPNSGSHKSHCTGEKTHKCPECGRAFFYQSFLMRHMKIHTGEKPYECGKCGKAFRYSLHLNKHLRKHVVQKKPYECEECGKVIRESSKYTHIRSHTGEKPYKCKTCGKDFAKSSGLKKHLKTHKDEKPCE
UniProt Q9BWM5: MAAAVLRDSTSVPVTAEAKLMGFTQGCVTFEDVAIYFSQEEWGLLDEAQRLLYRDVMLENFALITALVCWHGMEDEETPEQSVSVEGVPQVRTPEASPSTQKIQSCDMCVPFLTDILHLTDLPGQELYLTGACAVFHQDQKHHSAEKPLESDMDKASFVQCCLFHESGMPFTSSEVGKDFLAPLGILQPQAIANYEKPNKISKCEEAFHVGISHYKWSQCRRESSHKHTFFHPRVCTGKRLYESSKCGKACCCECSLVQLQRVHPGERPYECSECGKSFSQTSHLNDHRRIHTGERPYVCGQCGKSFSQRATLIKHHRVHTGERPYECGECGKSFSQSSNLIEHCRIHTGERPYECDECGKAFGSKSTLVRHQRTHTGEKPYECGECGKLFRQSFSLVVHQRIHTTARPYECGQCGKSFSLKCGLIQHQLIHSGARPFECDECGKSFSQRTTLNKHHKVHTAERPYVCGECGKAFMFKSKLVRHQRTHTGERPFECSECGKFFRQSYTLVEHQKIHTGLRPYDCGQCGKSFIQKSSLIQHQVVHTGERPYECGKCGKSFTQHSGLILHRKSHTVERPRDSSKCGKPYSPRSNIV
UniProt O00716: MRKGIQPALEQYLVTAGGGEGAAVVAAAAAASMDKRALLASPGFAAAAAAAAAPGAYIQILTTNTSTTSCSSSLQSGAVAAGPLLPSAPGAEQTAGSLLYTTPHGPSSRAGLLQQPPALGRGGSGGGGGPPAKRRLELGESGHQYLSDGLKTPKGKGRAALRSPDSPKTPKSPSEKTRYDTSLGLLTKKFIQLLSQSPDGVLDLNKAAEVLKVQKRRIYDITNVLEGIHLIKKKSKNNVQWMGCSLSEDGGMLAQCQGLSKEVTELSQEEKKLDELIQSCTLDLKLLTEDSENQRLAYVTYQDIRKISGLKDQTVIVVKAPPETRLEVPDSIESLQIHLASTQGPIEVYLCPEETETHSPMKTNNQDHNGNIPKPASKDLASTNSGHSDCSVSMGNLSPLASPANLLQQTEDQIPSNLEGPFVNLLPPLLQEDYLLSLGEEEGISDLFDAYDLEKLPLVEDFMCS
UniProt P19793: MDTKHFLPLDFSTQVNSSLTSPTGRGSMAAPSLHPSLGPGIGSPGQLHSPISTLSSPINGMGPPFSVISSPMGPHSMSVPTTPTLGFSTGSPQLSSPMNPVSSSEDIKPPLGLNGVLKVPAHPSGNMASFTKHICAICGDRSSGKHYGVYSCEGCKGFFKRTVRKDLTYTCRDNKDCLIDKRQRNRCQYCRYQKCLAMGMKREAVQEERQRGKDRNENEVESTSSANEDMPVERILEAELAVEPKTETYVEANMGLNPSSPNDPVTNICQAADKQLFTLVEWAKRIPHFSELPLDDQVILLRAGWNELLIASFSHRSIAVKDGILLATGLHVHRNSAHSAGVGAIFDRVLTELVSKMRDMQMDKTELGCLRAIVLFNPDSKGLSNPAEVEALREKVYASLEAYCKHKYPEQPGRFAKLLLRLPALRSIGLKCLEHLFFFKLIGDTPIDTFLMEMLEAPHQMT
UniProt Q08945, whole entry: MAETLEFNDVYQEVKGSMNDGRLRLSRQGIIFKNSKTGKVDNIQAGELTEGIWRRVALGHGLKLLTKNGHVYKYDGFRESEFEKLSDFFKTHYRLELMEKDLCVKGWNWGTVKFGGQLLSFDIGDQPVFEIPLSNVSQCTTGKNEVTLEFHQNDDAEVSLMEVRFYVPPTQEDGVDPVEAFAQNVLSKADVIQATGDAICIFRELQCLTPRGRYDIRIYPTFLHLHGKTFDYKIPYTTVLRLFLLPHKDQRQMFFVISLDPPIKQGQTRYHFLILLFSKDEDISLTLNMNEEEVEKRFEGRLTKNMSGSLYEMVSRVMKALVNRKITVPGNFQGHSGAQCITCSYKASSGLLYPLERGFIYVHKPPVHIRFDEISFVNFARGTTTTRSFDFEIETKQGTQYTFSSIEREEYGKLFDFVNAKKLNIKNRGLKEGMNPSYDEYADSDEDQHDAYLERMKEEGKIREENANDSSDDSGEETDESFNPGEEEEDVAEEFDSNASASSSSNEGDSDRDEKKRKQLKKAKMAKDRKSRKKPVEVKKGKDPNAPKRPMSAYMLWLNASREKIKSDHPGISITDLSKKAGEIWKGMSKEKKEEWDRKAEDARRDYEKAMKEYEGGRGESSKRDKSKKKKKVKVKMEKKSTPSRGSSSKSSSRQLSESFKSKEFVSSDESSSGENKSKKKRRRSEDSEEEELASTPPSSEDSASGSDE
UniProt Q8IW36: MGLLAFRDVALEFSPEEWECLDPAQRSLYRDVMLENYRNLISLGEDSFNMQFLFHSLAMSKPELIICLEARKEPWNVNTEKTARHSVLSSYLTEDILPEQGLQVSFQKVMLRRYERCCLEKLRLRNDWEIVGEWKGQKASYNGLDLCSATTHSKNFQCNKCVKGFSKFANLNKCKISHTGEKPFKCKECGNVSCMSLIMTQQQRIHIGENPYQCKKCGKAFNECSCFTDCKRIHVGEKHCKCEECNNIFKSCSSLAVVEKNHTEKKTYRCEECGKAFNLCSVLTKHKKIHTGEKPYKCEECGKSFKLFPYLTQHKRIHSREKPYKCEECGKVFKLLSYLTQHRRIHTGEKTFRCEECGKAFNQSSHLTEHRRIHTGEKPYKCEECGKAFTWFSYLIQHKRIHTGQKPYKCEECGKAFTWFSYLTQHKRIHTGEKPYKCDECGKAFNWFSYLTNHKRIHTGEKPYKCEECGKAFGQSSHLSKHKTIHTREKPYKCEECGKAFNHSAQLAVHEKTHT
UniProt P05549: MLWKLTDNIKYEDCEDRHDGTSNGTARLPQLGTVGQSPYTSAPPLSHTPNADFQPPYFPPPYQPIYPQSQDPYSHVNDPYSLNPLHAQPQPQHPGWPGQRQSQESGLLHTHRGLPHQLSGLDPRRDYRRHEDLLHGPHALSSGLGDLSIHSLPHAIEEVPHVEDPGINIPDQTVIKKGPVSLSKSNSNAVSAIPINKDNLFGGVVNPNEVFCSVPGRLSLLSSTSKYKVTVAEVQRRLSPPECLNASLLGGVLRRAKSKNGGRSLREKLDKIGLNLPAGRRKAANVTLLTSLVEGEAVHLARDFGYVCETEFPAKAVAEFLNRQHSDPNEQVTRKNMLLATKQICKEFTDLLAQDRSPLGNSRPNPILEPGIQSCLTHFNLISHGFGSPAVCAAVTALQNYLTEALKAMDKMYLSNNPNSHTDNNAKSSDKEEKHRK

Experiments:
Test in all cases: protein microarray
Conditions in all cases: 10-fold cold unmethylated competitor; 5mC at CpG (SssI, both strands); recombinant protein; protein details: GST (N-terminal); label: Cy5
GATA3 (Homo sapiens) = GATA3 (Homo sapiens) (UniProt P23771)
GATA4 (Homo sapiens) = GATA4 (Homo sapiens) (UniProt P43694)
HOXA5 (Homo sapiens) = HOXA5 (Homo sapiens) (UniProt P20719)
PPARG (Homo sapiens) = PPARG (Homo sapiens) (UniProt P37231)
RNF138 (Homo sapiens) = target: T1, RNF138 (Homo sapiens) (UniProt Q8WVD3)
T1 sequence (looked up, limits assumed): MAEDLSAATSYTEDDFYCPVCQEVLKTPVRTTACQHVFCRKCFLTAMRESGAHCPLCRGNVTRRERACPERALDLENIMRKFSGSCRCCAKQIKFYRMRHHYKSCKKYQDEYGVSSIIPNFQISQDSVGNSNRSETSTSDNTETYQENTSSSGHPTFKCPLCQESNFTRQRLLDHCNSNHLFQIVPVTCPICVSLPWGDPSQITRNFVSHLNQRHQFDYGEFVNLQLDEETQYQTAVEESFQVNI

SCAPER (Homo sapiens) = target: T2, SCAPER (Homo sapiens) (UniProt Q9BY12)
T2 sequence (looked up, limits assumed): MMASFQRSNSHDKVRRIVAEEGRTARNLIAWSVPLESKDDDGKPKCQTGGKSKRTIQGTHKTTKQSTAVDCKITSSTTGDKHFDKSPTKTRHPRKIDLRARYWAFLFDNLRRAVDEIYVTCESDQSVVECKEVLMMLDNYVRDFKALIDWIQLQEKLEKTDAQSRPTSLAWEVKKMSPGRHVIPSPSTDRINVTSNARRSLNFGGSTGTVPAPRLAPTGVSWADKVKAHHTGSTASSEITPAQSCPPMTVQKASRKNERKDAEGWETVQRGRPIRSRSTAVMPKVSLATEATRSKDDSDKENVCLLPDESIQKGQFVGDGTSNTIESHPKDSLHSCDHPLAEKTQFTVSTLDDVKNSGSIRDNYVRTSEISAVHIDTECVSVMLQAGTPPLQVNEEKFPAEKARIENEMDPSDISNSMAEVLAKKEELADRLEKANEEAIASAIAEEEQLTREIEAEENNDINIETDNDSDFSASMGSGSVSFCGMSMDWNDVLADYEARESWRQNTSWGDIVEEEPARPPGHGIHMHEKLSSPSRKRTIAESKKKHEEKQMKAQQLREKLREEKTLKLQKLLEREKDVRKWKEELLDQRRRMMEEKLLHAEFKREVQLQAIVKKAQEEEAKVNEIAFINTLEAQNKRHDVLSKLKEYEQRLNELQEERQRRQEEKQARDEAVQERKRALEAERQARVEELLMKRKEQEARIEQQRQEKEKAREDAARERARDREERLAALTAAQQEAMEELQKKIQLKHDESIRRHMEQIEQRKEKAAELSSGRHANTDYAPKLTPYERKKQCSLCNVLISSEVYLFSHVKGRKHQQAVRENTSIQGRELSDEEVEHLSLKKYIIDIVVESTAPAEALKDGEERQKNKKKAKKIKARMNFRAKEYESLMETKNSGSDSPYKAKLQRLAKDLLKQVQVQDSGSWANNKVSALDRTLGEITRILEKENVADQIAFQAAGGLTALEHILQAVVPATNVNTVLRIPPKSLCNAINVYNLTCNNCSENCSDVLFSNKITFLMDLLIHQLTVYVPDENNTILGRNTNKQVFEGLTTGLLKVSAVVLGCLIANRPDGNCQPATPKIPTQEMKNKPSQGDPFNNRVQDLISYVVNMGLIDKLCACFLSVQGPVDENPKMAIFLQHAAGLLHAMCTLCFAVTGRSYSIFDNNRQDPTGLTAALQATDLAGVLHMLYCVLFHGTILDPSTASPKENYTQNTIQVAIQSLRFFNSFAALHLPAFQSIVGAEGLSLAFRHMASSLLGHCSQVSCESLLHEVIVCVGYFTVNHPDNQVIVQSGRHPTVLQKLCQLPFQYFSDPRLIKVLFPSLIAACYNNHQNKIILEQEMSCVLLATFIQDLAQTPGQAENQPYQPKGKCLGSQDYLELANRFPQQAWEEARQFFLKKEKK

ZCCHC7 (Homo sapiens) = target: T3, ZCCHC7 (Homo sapiens) (UniProt Q8N3Z6)
T3 sequence (looked up, limits assumed): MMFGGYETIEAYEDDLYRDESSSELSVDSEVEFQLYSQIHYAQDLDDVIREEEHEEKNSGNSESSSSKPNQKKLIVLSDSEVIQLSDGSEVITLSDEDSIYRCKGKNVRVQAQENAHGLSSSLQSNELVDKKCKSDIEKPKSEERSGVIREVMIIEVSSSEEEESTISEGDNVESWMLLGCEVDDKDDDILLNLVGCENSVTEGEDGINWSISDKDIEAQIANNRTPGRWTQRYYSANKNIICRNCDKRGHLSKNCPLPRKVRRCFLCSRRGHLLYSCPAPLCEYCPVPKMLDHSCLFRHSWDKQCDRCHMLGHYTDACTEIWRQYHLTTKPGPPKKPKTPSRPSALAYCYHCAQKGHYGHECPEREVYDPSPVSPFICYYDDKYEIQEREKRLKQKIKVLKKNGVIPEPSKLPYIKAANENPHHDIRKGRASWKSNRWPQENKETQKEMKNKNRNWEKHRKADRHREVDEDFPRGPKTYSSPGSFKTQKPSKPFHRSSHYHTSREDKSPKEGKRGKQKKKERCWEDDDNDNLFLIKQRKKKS

ZNF114 (Homo sapiens) = ZNF114 (Homo sapiens) (UniProt Q8NC26)
ZNF416 (Homo sapiens) = ZNF416 (Homo sapiens) (UniProt Q9BWM5)
BCL3 (Homo sapiens) = target: T4, BCL3 (Homo sapiens) (UniProt P20749)
T4 sequence (looked up, limits assumed): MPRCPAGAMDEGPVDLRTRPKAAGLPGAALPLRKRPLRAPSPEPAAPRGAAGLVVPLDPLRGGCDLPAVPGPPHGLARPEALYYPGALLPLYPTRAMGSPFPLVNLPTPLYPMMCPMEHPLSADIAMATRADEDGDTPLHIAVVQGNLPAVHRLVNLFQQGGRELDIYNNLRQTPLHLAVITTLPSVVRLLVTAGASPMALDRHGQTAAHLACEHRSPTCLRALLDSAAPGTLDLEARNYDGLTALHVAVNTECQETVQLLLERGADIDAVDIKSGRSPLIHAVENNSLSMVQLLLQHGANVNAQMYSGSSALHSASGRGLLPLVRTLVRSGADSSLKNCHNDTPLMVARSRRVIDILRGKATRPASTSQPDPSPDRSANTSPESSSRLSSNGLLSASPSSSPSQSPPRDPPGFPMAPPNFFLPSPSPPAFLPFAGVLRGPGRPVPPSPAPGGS

E2F3 (Homo sapiens) = E2F3 (Homo sapiens) (UniProt O00716)
RXRA (Homo sapiens) = RXRA (Homo sapiens) (UniProt P19793)
SMAD4 (Homo sapiens) = target: T5, SMAD4 (Homo sapiens) (UniProt Q13485)
T5 sequence (looked up, limits assumed): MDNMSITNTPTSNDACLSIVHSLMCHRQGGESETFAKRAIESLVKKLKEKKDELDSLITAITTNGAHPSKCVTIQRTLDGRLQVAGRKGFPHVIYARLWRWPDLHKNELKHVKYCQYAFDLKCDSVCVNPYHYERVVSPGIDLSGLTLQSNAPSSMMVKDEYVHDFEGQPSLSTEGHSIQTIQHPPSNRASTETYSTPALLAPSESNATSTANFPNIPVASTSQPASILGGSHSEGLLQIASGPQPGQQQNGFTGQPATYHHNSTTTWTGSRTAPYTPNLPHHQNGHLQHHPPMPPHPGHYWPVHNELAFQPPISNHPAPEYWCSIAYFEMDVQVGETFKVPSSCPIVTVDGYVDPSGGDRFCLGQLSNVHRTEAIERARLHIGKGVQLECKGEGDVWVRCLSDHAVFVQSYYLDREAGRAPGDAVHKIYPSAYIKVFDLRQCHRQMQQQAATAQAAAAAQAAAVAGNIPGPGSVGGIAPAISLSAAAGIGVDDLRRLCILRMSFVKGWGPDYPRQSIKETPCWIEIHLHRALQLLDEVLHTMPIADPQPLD

SSRP1 (Homo sapiens) = SSRP1 (Homo sapiens) (UniProt Q08945)
ZNF695 (Homo sapiens) = ZNF695 (Homo sapiens) (UniProt Q8IW36)
NRF1 (Homo sapiens) = target: T6, NRF1 (Homo sapiens) (UniProt Q16656)
T6 sequence (looked up, limits assumed): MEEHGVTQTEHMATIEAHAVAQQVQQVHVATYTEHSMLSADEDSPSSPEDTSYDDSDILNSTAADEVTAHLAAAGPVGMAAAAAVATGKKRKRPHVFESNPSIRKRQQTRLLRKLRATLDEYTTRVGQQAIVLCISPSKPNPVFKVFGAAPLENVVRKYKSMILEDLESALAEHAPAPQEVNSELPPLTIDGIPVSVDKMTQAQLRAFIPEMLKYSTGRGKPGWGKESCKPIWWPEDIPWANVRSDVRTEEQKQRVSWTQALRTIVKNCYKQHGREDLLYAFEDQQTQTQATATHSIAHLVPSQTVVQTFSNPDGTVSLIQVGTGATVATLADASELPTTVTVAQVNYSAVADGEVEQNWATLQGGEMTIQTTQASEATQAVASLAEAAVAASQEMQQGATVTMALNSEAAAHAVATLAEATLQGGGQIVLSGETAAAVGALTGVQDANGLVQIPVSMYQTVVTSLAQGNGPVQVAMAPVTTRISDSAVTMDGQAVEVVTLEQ

TFAP2A (Homo sapiens) = TFAP2A (Homo sapiens) (UniProt P05549)

Measured: binding result

AAAACGTACCCAAAACGTACCCTATAGTGAGTGCTATTA (double strand) [M437]
binds: GATA3 (Homo sapiens) | GATA4 (Homo sapiens) | HOXA5 (Homo sapiens) | PPARG (Homo sapiens) | RNF138 (Homo sapiens) | SCAPER (Homo sapiens) | ZCCHC7 (Homo sapiens) | ZNF114 (Homo sapiens) | ZNF416 (Homo sapiens)

ACCCCGCAAAACCCCGCCCCTATAGTGAGTGCTATTA (double strand) [M317]
not listed: GATA3 (Homo sapiens) | NRF1 (Homo sapiens) | TFAP2A (Homo sapiens)
binds: all other assays above

CGCAGCCAAACGCAGCCCCCTATAGTGAGTGCTATTA (double strand) [M86]
not listed: SMAD4 (Homo sapiens) | SSRP1 (Homo sapiens) | ZNF695 (Homo sapiens) | NRF1 (Homo sapiens) | TFAP2A (Homo sapiens)
binds: all other assays above

GCCTCGCAAAGCCTCGCCCCTATAGTGAGTGCTATTA (double strand) [M311]
not listed: SSRP1 (Homo sapiens) | NRF1 (Homo sapiens) | TFAP2A (Homo sapiens)
binds: all other assays above

GCGCTCCAAAGCGCTCCCCCTATAGTGAGTGCTATTA (double strand) [M83]
not listed: ZCCHC7 (Homo sapiens) | E2F3 (Homo sapiens) | SMAD4 (Homo sapiens) | SSRP1 (Homo sapiens) | ZNF695 (Homo sapiens) | NRF1 (Homo sapiens) | TFAP2A (Homo sapiens)
binds: all other assays above

TGACGCATTTTGACGCACCCTATAGTGAGTGCTATTA (double strand) [M312]
not listed: GATA3 (Homo sapiens) | NRF1 (Homo sapiens) | TFAP2A (Homo sapiens)
binds: all other assays above

TTCCCGAGGGTTTTTCCCGAGGGCCCTATAGTGAGTGCTATTA (double strand) [M380]
not listed: BCL3 (Homo sapiens) | SSRP1 (Homo sapiens)
binds: all other assays above
